# These are yes or no findings as the source states them, for the method shown. In cells and extracts the contact can be indirect. Binding can be weak; no strength is given. Tags and fused reporters may be left off the sequences shown.
# Chains of the proteins cited; added tags and fusions are not shown. Lines headed by an entry give the natural chain unless they say otherwise; changes in a name come on top.
# UniProt P23258: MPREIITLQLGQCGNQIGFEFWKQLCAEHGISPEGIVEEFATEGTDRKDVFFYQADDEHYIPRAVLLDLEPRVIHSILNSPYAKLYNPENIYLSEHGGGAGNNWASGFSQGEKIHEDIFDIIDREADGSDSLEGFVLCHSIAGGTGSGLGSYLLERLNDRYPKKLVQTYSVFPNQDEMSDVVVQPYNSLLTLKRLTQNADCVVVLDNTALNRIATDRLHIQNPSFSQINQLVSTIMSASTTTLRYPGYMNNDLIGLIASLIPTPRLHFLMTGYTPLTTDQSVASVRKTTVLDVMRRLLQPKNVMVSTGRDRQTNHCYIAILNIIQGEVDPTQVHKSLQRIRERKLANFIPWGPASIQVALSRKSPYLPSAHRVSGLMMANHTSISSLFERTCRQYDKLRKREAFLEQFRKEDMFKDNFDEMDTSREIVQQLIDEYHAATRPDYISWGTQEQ
# Target: T1, wild-type C21orf2 tagged with a C-terminal turbo-GFP (tGFP) (human) (UniProt O43822)
# T1 sequence: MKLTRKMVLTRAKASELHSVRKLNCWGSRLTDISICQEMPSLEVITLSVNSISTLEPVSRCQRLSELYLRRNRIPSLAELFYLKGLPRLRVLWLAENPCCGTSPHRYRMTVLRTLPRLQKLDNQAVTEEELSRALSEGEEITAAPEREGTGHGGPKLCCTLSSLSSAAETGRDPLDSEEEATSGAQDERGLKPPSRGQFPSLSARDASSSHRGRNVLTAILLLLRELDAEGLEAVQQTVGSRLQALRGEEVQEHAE
# Assay: co-IP
substance,measurement,value
γ-tubulin (from UniProt P23258),binding,binds

# Reference: paper doi:10.1101/2022.02.28.482239
